Reference: PubChem BioAssay AID1332 (Southern Research Institute, 2008)
Values after ≈ are worked out from the molar mass of the structure shown. The list shows a part of the results. These are further read-outs of the screen, such as a control signal, another cell line or another target. No call is given for them. Starred links: 1 amine or outer side, 2 acyl side, 3 side chain; linkers in the order of their positions; H or OH if unused. Positions of bridges follow the written chain, without caps; N, C: chain ends. Non-standard residues stand in square brackets, D forms with d. Residues, ends and D or L forms follow the SMILES beside them. *: point of attachment. X2 = NC1=N[C@@H]([C@H](N[*:1])C(=O)[*:2])C[C@H](O)N1; ΔAla(Z-3-ureido) = NC(=O)N/C=C(\N)C(=O)O; β3hOrn = NCCC[C@H](N)CC(=O)*; Dap = NC[C@H](N)C(=O)O

Assay: Confirmatory growth inhibition assay, mycobacterium tuberculosis h37rv, with cytotoxicity (AID 1332);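 for CC50: Vero cells exposed to compounds for 72 hours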;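 for IC50: bacteria incubated 7 days before adding Alamar blue readout reagent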
Conditions: M. tuberculosis H37Rv growth inhibition; CC50: measured here: Vero cell cytotoxicity; IC50: measured here: IC50 H37Rv replicates

Compound | IC50 | CC50
O=C1O[C@H]([C@@H](O)CO)C(O)=C1O | > 20 µg/mL | 
O=c1c(O)c(-c2ccc(O)c(O)c2)oc2cc(O)cc(O)c12 | > 20 µg/mL | 
CN(C)[C@@H]1CCCCC(OC2c3ccccc3CCc3ccccc32)C1 (some centres not stated) | > 18.7 µg/mL | > 6 µg/mL
COCCc1ccc(OCC(O)CNC(C)C)cc1 (configuration not stated) | > 20 µg/mL | 
CCCCC[C@H](O)/C=C/[C@H]1[C@H](O)CC(=O)[C@@H]1CCCCCCC(=O)O | > 20 µg/mL | 
CCOc1ccc(NC(C)=O)cc1 | > 20 µg/mL | 
CC(C(=O)O)c1ccc(C(=O)c2cccs2)cc1 (configuration not stated) | > 20 µg/mL | 
C#C[C@]1(O)CC[C@H]2[C@@H]3CCC4=C(CCC(=O)C4)[C@H]3CC[C@@]21C | > 20 µg/mL | 
NS(=O)(=O)c1cc2c(cc1Cl)NC(CC1CCCC1)NS2(=O)=O (configuration not stated) | > 20 µg/mL | 
CC(C)(C)NCC(O)c1cc(O)cc(O)c1 (configuration not stated) | > 20 µg/mL | 
CC[N+](CC)(CC)CCOc1cccc(OCC[N+](CC)(CC)CC)c1OCC[N+](CC)(CC)CC | > 20 µg/mL | 
CNC(C)(C)Cc1ccccc1 | > 20 µg/mL | 
CC/C(=C(\c1ccccc1)c1ccc(OCCN(C)C)cc1)c1ccccc1 | 4.89 µg/mL (≈ 13.2 µM) | > 6 µg/mL
CCc1oc2ccccc2c1C(=O)c1cc(Br)c(O)c(Br)c1 | > 20 µg/mL | 
NC(=O)NC1NC(=O)NC1=O (configuration not stated) | > 20 µg/mL | 
CCCCC[C@H](O)/C=C/[C@@H]1[C@@H](C/C=C/CCCC(=O)O)[C@@H](O)C[C@H]1O | > 20 µg/mL | 
Cc1ccccc1C(OCCN(C)C)c1ccccc1 (configuration not stated) | > 20 µg/mL | 
COC(=O)C1=C(C)NC(C)=C(C(=O)OCCN(C)Cc2ccccc2)C1c1cccc([N+](=O)[O-])c1 (configuration not stated) | > 20 µg/mL | 
COc1ccccc1N1CCN(CCCCNC(=O)c2ccc3ccccc3c2)CC1 | > 20 µg/mL | 
CNCC(O)c1ccc(O)cc1 (configuration not stated) | > 20 µg/mL | 
Cc1cnc(C(=O)NCCc2ccc(S(=O)(=O)NC(=O)NC3CCCCC3)cc2)cn1 | > 20 µg/mL | 
CN1CCOC(c2ccccc2)c2ccccc2C1 (configuration not stated) | > 20 µg/mL | 
CCCCNc1ccc(C(=O)OCCN(C)C)cc1 | > 20 µg/mL | 
COc1ccccc1N1CCN(CCCNc2cc(=O)n(C)c(=O)n2C)CC1 | > 20 µg/mL | 

Compound | IC50 | CC50
CCNCC(O)c1cccc(O)c1 (configuration not stated) | > 20 µg/mL | 
O=C(/C=C/C=C/c1ccc2c(c1)OCO2)N1CCCCC1 | > 20 µg/mL | 
CCN(CC)Cc1cc(Nc2ccnc3cc(Cl)ccc23)ccc1O | > 20 µg/mL | > 6 µg/mL
CC(=O)N[C@@H](CC(=O)N[C@H](CCC(=O)O)C(=O)O)C(=O)O | > 20 µg/mL | 
CC(C)NCC(O)c1cc(O)cc(O)c1 (configuration not stated) | > 20 µg/mL | 
C#CCN(C)CCCOc1ccc(Cl)cc1Cl | > 20 µg/mL | 
O=C(O)CN(CCN(CC(=O)O)CC(=O)O)CCN(CC(=O)O)CC(=O)O | > 20 µg/mL | 
Cn1c(=O)c2c(ncn2CCO)n(C)c1=O | > 20 µg/mL | 
CNCCCN1c2ccccc2CCc2ccccc21 | > 19.2 µg/mL | 
Cc1cccc(Nc2ccccc2C(=O)O)c1C | > 20 µg/mL | 
C[n+]1ccccc1/C=N/O | > 20 µg/mL | 
CCN(CC)CCNC(=O)COc1ccc(OC)cc1 | > 20 µg/mL | 
Clc1ccc(C(Cn2ccnc2)OCc2csc3c(Cl)cccc23)c(Cl)c1 (configuration not stated) | 2.41 µg/mL (≈ 5.51 µM) | > 6 µg/mL
CC(=O)OCC1=C(C(=O)O)N2C(=O)[C@@H](NC(=O)Cc3cccs3)[C@H]2SC1 | > 20 µg/mL | 
CC1(C)S[C@@H]2[C@H](NC(=O)Cc3ccccc3)C(=O)N2[C@H]1C(=O)O | > 20 µg/mL | 
O=C1CCC(N2C(=O)c3ccccc3C2=O)C(=O)N1 (configuration not stated) | > 20 µg/mL | 
NCC[C@H](O)C(=O)N[C@@H]1C[C@H](N)[C@@H](O[C@H]2O[C@H](CN)[C@@H](O)[C@H](O)[C@H]2O)[C@H](O)[C@H]1O[C@H]1O[C@H](CO)[C@@H](O)[C@H](N)[C@H]1O | < 0.04 µg/mL | 
CNC(=O)Oc1ccc2c(c1)[C@]1(C)CCN(C)[C@@H]1N2C | > 20 µg/mL | 
CN1CCC(OC(c2ccccc2)c2ccccc2)CC1 | > 20 µg/mL | 
CN(C)C(=O)Oc1cccc([N+](C)(C)C)c1 | > 20 µg/mL | 
CN(C)CCCN1c2ccccc2CCc2ccccc21 | > 20 µg/mL | 
NC(CO)C(=O)NNCc1ccc(O)c(O)c1O (configuration not stated) | > 20 µg/mL | 
NCCC[C@H](N)CC(=O)N[C@H]1CNC(=O)[C@H]([C@H]2C[C@H](O)NC(N)=N2)NC(=O)/C(=C/NC(N)=O)NC(=O)[C@H](CO)NC(=O)[C@H](CO)NC1=O (β3hOrn-[Dap]SS[ΔAla(Z-3-ureido)][X2]; lactam 1-C) | 0.0415 µg/mL (≈ 0.0605 µM) | 
O=C(O)CCCC[C@@H]1SC[C@@H]2NC(=O)N[C@@H]21 | > 20 µg/mL | 

Compound | IC50 | CC50
COCC(=O)Nc1c(I)c(C(=O)NCC(O)CO)c(I)c(C(=O)N(C)CC(O)CO)c1I (configuration not stated) | > 20 µg/mL | 
CC1COc2c(N3CCN(C)CC3)c(F)cc3c(=O)c(C(=O)O)cn1c23 (configuration not stated) | 0.057 µg/mL (≈ 0.158 µM) | 
C[C@H](CCC(=O)O)[C@H]1CC[C@H]2[C@@H]3CC[C@@H]4C[C@H](O)CC[C@]4(C)[C@H]3CC[C@]12C | > 20 µg/mL | 
CC(=O)SCC(Cc1ccccc1)C(=O)NCC(=O)OCc1ccccc1 (configuration not stated) | > 20 µg/mL | 
COC(=O)C1=C(C)NC(C)=C(C(=O)OC(C)C)C1c1cccc2nonc12 (configuration not stated) | > 20 µg/mL | 
CC[C@@]1([C@@H]2O[C@@H]([C@H]3O[C@@](O)(CO)[C@H](C)C[C@@H]3C)C[C@@H]2C)CC[C@H]([C@]2(C)CC[C@]3(C[C@H](O)[C@@H](C)[C@@H]([C@@H](C)[C@@H](OC)[C@H](C)C(=O)O)O3)O2)O1 (stereo in doubt) | 2.25 µg/mL (≈ 3.36 µM) | 2.05 µg/mL (≈ 3.05 µM)
CC(C)C(=O)Nc1ccc([N+](=O)[O-])c(C(F)(F)F)c1 | > 20 µg/mL | > 6 µg/mL
CN(C)[C@@H]1C(=O)C(C(N)=O)=C(O)[C@@]2(O)C(=O)C3=C(O)c4c(O)ccc(Cl)c4[C@@H](O)[C@H]3C[C@@H]12 | 1.51 µg/mL (≈ 3.26 µM) | 
CN1Cc2c(N)cccc2C(c2ccccc2)C1 (configuration not stated) | > 20 µg/mL | 
CCN[C@@H]1C[C@H](N)[C@@H](O[C@H]2OC(CN)=CC[C@H]2N)[C@H](O)[C@H]1O[C@H]1OC[C@](C)(O)[C@H](NC)[C@H]1O | > 20 µg/mL | 
CCCOc1ccccc1-c1nc2n[nH]nc2c(=O)[nH]1 | > 20 µg/mL | 
CCN(CC)CCOc1ccc(/C(=C(/Cl)c2ccccc2)c2ccccc2)cc1 | 4.06 µg/mL (≈ 10 µM) | > 6 µg/mL
O=C(c1ccccc1)c1ccc2n1CCC2C(=O)O (configuration not stated) | > 20 µg/mL | 
CCCSc1ccc2nc(NC(=O)OC)[nH]c2c1 | > 20 µg/mL | > 6 µg/mL
C#CCN(C)[C@H](C)Cc1ccccc1 | > 20 µg/mL | 
COc1ccccc1OCC(O)COC(N)=O (configuration not stated) | > 20 µg/mL | 
Cc1cc(N)c2ccccc2[n+]1CCCCCCCCCC[n+]1c(C)cc(N)c2ccccc21 | 1.34 µg/mL | > 6 µg/mL
Nc1c2c(nc3ccccc13)CCCC2O (configuration not stated) | > 20 µg/mL | 
CC(C)C[C@H]1C(=O)N2CCC[C@H]2[C@]2(O)O[C@](NC(=O)[C@@H]3C=C4c5cccc6[nH]c(Br)c(c56)CC4N(C)C3)(C(C)C)C(=O)N12 (some centres not stated) | > 20 µg/mL | 
CCN1C[C@]2(COC)CC[C@H](O)[C@]34C1[C@H](C[C@H]23)[C@@]1(O)C[C@H](OC)[C@H]2C[C@@H]4[C@@H]1[C@H]2OC(C)=O | > 20 µg/mL | 
CC(N=C(NC#N)Nc1ccncc1)C(C)(C)C (configuration not stated) | > 20 µg/mL | 
CC(=O)OCC(=O)[C@@]1(OC(C)=O)[C@@H](C)C[C@H]2[C@@H]3C[C@H](F)C4=CC(=O)C=C[C@]4(C)[C@@]3(F)[C@@H](O)C[C@@]21C | > 20 µg/mL | 
CCCOc1ccc(C(=O)OCCN(CC)CC)cc1N | > 20 µg/mL | 
O=c1[nH]c2ccccc2n1C1CCN(CCCC(c2ccc(F)cc2)c2ccc(F)cc2)CC1 | 1.62 µg/mL (≈ 3.51 µM) | 5.04 µg/mL (≈ 10.9 µM)

Compound | IC50 | CC50
C#C[C@]1(O)CC[C@H]2[C@@H]3CCC4=CC(=O)CC[C@@H]4[C@H]3CC[C@@]21CC | > 20 µg/mL | 
CC1(C)[C@@H](OC(=O)CCC(=O)O)CC[C@]2(C)[C@H]3C(=O)C=C4[C@@H]5C[C@@](C)(C(=O)O)CC[C@]5(C)CC[C@@]4(C)[C@]3(C)CC[C@@H]12 | > 20 µg/mL | 
C=CCOC(Cn1ccnc1)c1ccc(Cl)cc1Cl (configuration not stated) | 1.81 µg/mL (≈ 6.08 µM) | 
Cc1cc2c(C(C)C)c(O)c(O)c(C=O)c2c(O)c1-c1c(C)cc2c(C(C)C)c(O)c(O)c(C=O)c2c1O | > 20 µg/mL | 4.7 µg/mL (≈ 9.07 µM)
CO[C@@H]1[C@@H](O[C@@H]2O[C@H](C)[C@@H](O[C@H]3C[C@@](C)(OC(=O)CC(C)C)[C@@H](O)[C@H](C)O3)[C@H](N(C)C)[C@H]2O)[C@@H](CC=O)C[C@@H](C)[C@@H](O)/C=C/C=C/C[C@@H](C)OC(=O)C[C@H]1OC(C)=O | > 20 µg/mL | 
O=C(/C=C/c1ccc(O)c(O)c1)O[C@@H]1C[C@](O)(C(=O)O)C[C@@H](O)[C@H]1O | > 20 µg/mL | 
c1ccc(CN(CC2=NCCN2)c2ccccc2)cc1 | > 20 µg/mL | 
C=CCSCC1Nc2cc(Cl)c(S(N)(=O)=O)cc2S(=O)(=O)N1 (configuration not stated) | > 20 µg/mL | 
CN1C2CCC1CC(OC(=O)C(CO)c1ccccc1)C2 (configuration not stated) | > 20 µg/mL | 
CCOC(=O)c1ccc(N)cc1 | > 20 µg/mL | 
OC(CCCN1CCCCC1)(c1ccccc1)c1ccccc1 | > 20 µg/mL | 
C[C@]12CC[C@@H]3c4ccc(OS(=O)(=O)O)cc4CC[C@H]3[C@@H]1CCC2=O | > 20 µg/mL | 
Cc1ccc(S(=O)(=O)NC(=O)NN2CCCCCC2)cc1 | > 20 µg/mL | 
CCC(=O)OC(Cc1ccccc1)(c1ccccc1)C(C)CN(C)C (configuration not stated) | > 20 µg/mL | 
Cc1ccsc1/C=C/C1=NCCCN1C | > 20 µg/mL | 
CCN(CC)CCNc1ccc(CO)c2sc3ccccc3c(=O)c12 | 10.8 µg/mL (≈ 30.3 µM) | 3 µg/mL (≈ 8.41 µM)
O=C(COc1ccc(Cl)cc1)N1CCN(Cc2ccc3c(c2)OCO3)CC1 | > 20 µg/mL | 
CN(Cc1cnc2nc(N)nc(N)c2n1)c1ccc(C(=O)N[C@@H](CCC(=O)O)C(=O)O)cc1 | > 20 µg/mL | 0.023 µg/mL (≈ 0.0506 µM)
CC1=C(/C=C/C(C)=C/C=C/C(C)=C\C(=O)O)C(C)(C)CCC1 | > 20 µg/mL | 
CC/C(=C(/CC)c1ccc(O)cc1)c1ccc(O)cc1 | > 20 µg/mL | > 6 µg/mL
CSc1ccc2c(c1)N(CCC1CCCCN1C)c1ccccc1S2 (configuration not stated) | 2.28 µg/mL (≈ 6.14 µM) | > 6 µg/mL
NC(N)=Nc1nc(CSCC/C(N)=N/S(N)(=O)=O)cs1 | > 20 µg/mL | 
COc1cc(NC(C)CCCN)c2ncccc2c1 (configuration not stated) | 11.6 µg/mL (≈ 44.6 µM) | 
CCCCNc1c(C(=O)OCC)c(C)nc2c1cnn2CC | > 20 µg/mL | > 6 µg/mL

Four entries from above, as comma-separated lines.
Compound,IC50,CC50
OC(CCCN1CCCCC1)(c1ccccc1)c1ccccc1,> 20 µg/mL,
CCC(=O)OC(Cc1ccccc1)(c1ccccc1)C(C)CN(C)C (configuration not stated),> 20 µg/mL,
Cc1ccsc1/C=C/C1=NCCCN1C,> 20 µg/mL,
CC1=C(/C=C/C(C)=C/C=C/C(C)=C\C(=O)O)C(C)(C)CCC1,> 20 µg/mL,

Shown as a markdown table: 3 of the compounds above.

| Compound | IC50 | CC50 |
| --- | --- | --- |
| O=C(COc1ccc(Cl)cc1)N1CCN(Cc2ccc3c(c2)OCO3)CC1 | > 20 µg/mL |  |
| CN(Cc1cnc2nc(N)nc(N)c2n1)c1ccc(C(=O)N[C@@H](CCC(=O)O)C(=O)O)cc1 | > 20 µg/mL | 0.023 µg/mL (≈ 0.0506 µM) |
| CC1=C(/C=C/C(C)=C/C=C/C(C)=C\C(=O)O)C(C)(C)CCC1 | > 20 µg/mL |  |
